Where a name gives a salt, the structure may show the parent alone. Some of the results follow. Repeats are few or missing, and single values can be far off.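 The three strains are clinical Candida auris isolates from the CDC resistance isolate bank, from clades III, IV and I, grown in RPMI-1640 at 35°C. Growth is background-corrected OD600 relative to vehicle-only wells on the same plate; a hit meant over 50% inhibition in at least two strains plus a plate-corrected B-score above 0.1.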
Tests used:
Experiment in all cases: growth relative to vehicle control (OD600 ratio) (fraction); higher = less inhibition
Settings in all cases: 24 h
[1] = test system: C. auris AR-384
[2] = test system: C. auris AR-386
[3] = test system: C. auris AR-387

What does the source list for `C[C@@H]1CC[C@H]2[C@@H](C)C(=O)O[C@@H]3O[C@@]4(C)CC[C@@H]1[C@]32OO4` [Artemisinin]?
growth ([1]; 1 µM): 0.61; growth ([1]; 10 µM): 0.43; growth ([2]; 1 µM): 0.46; growth ([2]; 10 µM): 0.75; growth ([3]; 1 µM): 0.69; growth ([3]; 10 µM): 0.6

Which growth ([1]; 1 µM) does the source give for `C=CCN1CC[C@]23c4c5ccc(O)c4O[C@H]2C(=O)CC[C@@]3(O)[C@H]1C5` [Naloxone HCl] here?
The growth was 0.86.

What about the growth ([1]; 10 µM) of the same compound?
The growth was 1.46.

And the growth ([2]; 1 µM)?
The growth was 0.89.

And the growth ([2]; 10 µM)?
The growth was 1.19.

And the growth ([3]; 1 µM)?
Its growth is 0.93.

What about the growth ([3]; 10 µM) of the same compound?
Its growth is 1.38.

Which results are given for `NC(=O)c1cc(N2CC2)c([N+](=O)[O-])cc1[N+](=O)[O-]`?
growth ([1]; 1 µM): 0.98; growth ([1]; 10 µM): 0.98; growth ([2]; 1 µM): 0.9; growth ([2]; 10 µM): 1; growth ([3]; 1 µM): 0.96; growth ([3]; 10 µM): 0.98

For `CNC(C)Cc1ccccc1OC` (stereo not given) [Methoxyphenamine Hydrochloride], which growth ([1]; 1 µM) is on record?
The growth was 0.99.

And the growth ([1]; 10 µM)?
The growth was 0.89.

What about the growth ([2]; 1 µM) of the same compound?
The growth was 1.15.

What about the growth ([2]; 10 µM) of the same compound?
The growth was 1.

And the growth ([3]; 1 µM)?
The growth was 1.14.

And the growth ([3]; 10 µM)?
Its growth is 1.3.

Which growth ([1]; 1 µM) does the source give for `NCC(O)c1ccc(O)cc1` (racemic) [(+,-)-Octopamine HCl] here?
Its growth is 0.89.

What about the growth ([1]; 10 µM) of the same compound?
Its growth is 0.74.

What about the growth ([2]; 1 µM) of the same compound?
The growth was 0.62.

And the growth ([2]; 10 µM)?
Its growth is 0.64.

What about the growth ([3]; 1 µM) of the same compound?
Its growth is 0.76.

What about the growth ([3]; 10 µM) of the same compound?
Its growth is 0.66.

How did the growth ([1]; 1 µM) turn out when `NC(=O)CN1CC(O)CC1=O` (stereo not given) [Oxiracetam] was run?
The growth was 0.94.

And the growth ([1]; 10 µM)?
Its growth is 0.82.

And the growth ([2]; 1 µM)?
Its growth is 0.96.

And the growth ([2]; 10 µM)?
Its growth is 0.81.

And the growth ([3]; 1 µM)?
Its growth is 0.89.

What about the growth ([3]; 10 µM) of the same compound?
Its growth is 1.11.

What does the source list for `Cc1cccc(Cc2c[nH]cn2)c1C` [Detomidine HCl]?
growth ([1]; 1 µM): 0.66; growth ([1]; 10 µM): 0.93; growth ([2]; 1 µM): 1.06; growth ([2]; 10 µM): 1.2; growth ([3]; 1 µM): 1.08; growth ([3]; 10 µM): 0.86

`Cc1cccc(C)c1NC1=NCCCS1` [Xylazine HCl] was tested. Which growth ([1]; 1 µM) did it give?
The growth was 0.87.

And the growth ([1]; 10 µM)?
Its growth is 0.77.

And the growth ([2]; 1 µM)?
The growth was 0.95.

What about the growth ([2]; 10 µM) of the same compound?
Its growth is 1.09.

What about the growth ([3]; 1 µM) of the same compound?
The growth was 0.89.

What about the growth ([3]; 10 µM) of the same compound?
Its growth is 0.76.

`C[N+](C)(C)CCCCCCCCCC[N+](C)(C)C` [Decamethonium Bromide] was tested. Which growth ([1]; 1 µM) did it give?
Its growth is 1.14.

And the growth ([1]; 10 µM)?
Its growth is 1.23.

And the growth ([2]; 1 µM)?
The growth was 1.4.

What about the growth ([2]; 10 µM) of the same compound?
The growth was 1.3.

And the growth ([3]; 1 µM)?
The growth was 1.43.

And the growth ([3]; 10 µM)?
Its growth is 1.4.

What does the source list for `CC(O)(CS(=O)(=O)c1ccc(F)cc1)C(=O)Nc1ccc(C#N)c(C(F)(F)F)c1` (stereo not given) [Bicalutamide]?
growth ([1]; 1 µM): 0.88; growth ([1]; 10 µM): 1.32; growth ([2]; 1 µM): 1.34; growth ([2]; 10 µM): 1.43; growth ([3]; 1 µM): 1.12; growth ([3]; 10 µM): 1.4

Which results are given for `CNCC(=O)c1ccc(O)c(O)c1` [Adrenalone HCl]?
growth ([1]; 1 µM): 1.11; growth ([1]; 10 µM): 0.69; growth ([2]; 1 µM): 0.77; growth ([2]; 10 µM): 1.06; growth ([3]; 1 µM): 0.83; growth ([3]; 10 µM): 1

Which results are given for `CCC1(c2cccc(O)c2)CCCCN(C)C1` (stereo not given) [Meptazinol HCl]?
growth ([1]; 1 µM): 0.88; growth ([1]; 10 µM): 0.84; growth ([2]; 1 µM): 0.89; growth ([2]; 10 µM): 1.08; growth ([3]; 1 µM): 1.01; growth ([3]; 10 µM): 1.1

With `CC(C)N(CCNC(=O)CN1CCCC1=O)C(C)C` [Pramiracetam] as the compound, how does the growth ([1]; 1 µM) read?
The growth was 0.95.

And the growth ([1]; 10 µM)?
Its growth is 0.86.

And the growth ([2]; 1 µM)?
Its growth is 1.26.

And the growth ([2]; 10 µM)?
The growth was 1.15.

And the growth ([3]; 1 µM)?
Its growth is 1.38.

What about the growth ([3]; 10 µM) of the same compound?
The growth was 1.23.

Which growth ([1]; 1 µM) does the source give for `CCN(CC)CCOC(=O)C(O)(c1ccccc1)c1ccccc1` [Benactyzine hydrochloride] here?
Its growth is 1.09.

What about the growth ([1]; 10 µM) of the same compound?
Its growth is 0.81.

And the growth ([2]; 1 µM)?
Its growth is 0.9.

And the growth ([2]; 10 µM)?
Its growth is 0.93.

And the growth ([3]; 1 µM)?
Its growth is 0.65.

And the growth ([3]; 10 µM)?
Its growth is 0.73.

How did the growth ([1]; 1 µM) turn out when `COC(=O)C1=CCCN(C)C1` [Arecoline HBr] was run?
Its growth is 1.21.

What about the growth ([1]; 10 µM) of the same compound?
Its growth is 1.06.

What about the growth ([2]; 1 µM) of the same compound?
Its growth is 1.02.

What about the growth ([2]; 10 µM) of the same compound?
The growth was 1.05.

What about the growth ([3]; 1 µM) of the same compound?
The growth was 0.94.

What about the growth ([3]; 10 µM) of the same compound?
The growth was 0.96.

What does the source list for `C[CH2][Hg][S]c1ccccc1C(=O)[O-].[Na+]` [Thimerosal]?
growth ([1]; 1 µM): 0.21; growth ([1]; 10 µM): 0.18; growth ([2]; 1 µM): 0.03; growth ([2]; 10 µM): 0.03; growth ([3]; 1 µM): 0.03; growth ([3]; 10 µM): 0

What does the source list for `OC(c1ccccc1)(c1ccccc1)C1CCNCC1` [Azacyclonol]?
growth ([1]; 1 µM): 0.8; growth ([1]; 10 µM): 0.54; growth ([2]; 1 µM): 0.89; growth ([2]; 10 µM): 0.58; growth ([3]; 1 µM): 0.58; growth ([3]; 10 µM): 0.69

What does the source list for `COc1cc2c(c(OC)c1OC)-c1ccc(OC)c(=O)cc1[C@@H](NC(C)=O)CC2` [Colchicine]?
growth ([1]; 1 µM): 1.22; growth ([1]; 10 µM): 1.26; growth ([2]; 1 µM): 1.16; growth ([2]; 10 µM): 1.05; growth ([3]; 1 µM): 1.07; growth ([3]; 10 µM): 1.34

Which growth ([1]; 1 µM) does the source give for `CCCN1C[C@H](CSC)C[C@@H]2c3cccc4[nH]cc(c34)C[C@H]21` [Pergolide Mesylate] here?
Its growth is 0.66.

What about the growth ([1]; 10 µM) of the same compound?
Its growth is 0.75.

What about the growth ([2]; 1 µM) of the same compound?
Its growth is 0.79.

What about the growth ([2]; 10 µM) of the same compound?
Its growth is 0.78.

What about the growth ([3]; 1 µM) of the same compound?
The growth was 0.72.

What about the growth ([3]; 10 µM) of the same compound?
The growth was 0.81.

Which results are given for `COc1ccc(CN2CCNCC2)c(OC)c1OC` [Trimetazidine dihydrochloride]?
growth ([1]; 1 µM): 0.8; growth ([1]; 10 µM): 0.96; growth ([2]; 1 µM): 0.89; growth ([2]; 10 µM): 0.86; growth ([3]; 1 µM): 0.88; growth ([3]; 10 µM): 0.79

Which results are given for `COc1ccc2c(c1)[C@]13CCCC[C@@H]1[C@H](C2)N(C)CC3` [Dextromethorphan hydrobromide hydrate]?
growth ([1]; 1 µM): 1.22; growth ([1]; 10 µM): 0.97; growth ([2]; 1 µM): 0.81; growth ([2]; 10 µM): 0.9; growth ([3]; 1 µM): 0.87; growth ([3]; 10 µM): 0.98

How did the growth ([1]; 1 µM) turn out when `NC[C@H](CC(=O)O)c1ccc(Cl)cc1` [(R)-baclofen] was run?
The growth was 0.89.

What about the growth ([1]; 10 µM) of the same compound?
Its growth is 1.23.

What about the growth ([2]; 1 µM) of the same compound?
The growth was 0.92.

And the growth ([2]; 10 µM)?
The growth was 0.86.

And the growth ([3]; 1 µM)?
The growth was 1.19.

What about the growth ([3]; 10 µM) of the same compound?
The growth was 1.24.

Which growth ([1]; 1 µM) does the source give for `CC(C)OC(=O)[C@H](C)N[P@](=O)(CO[C@H](C)Cn1cnc2c(N)ncnc21)Oc1ccccc1` [Tenofovir Alafenamide (GS-7340)] here?
The growth was 0.77.

What about the growth ([1]; 10 µM) of the same compound?
The growth was 0.73.

What about the growth ([2]; 1 µM) of the same compound?
The growth was 0.51.

And the growth ([2]; 10 µM)?
Its growth is 0.91.

What about the growth ([3]; 1 µM) of the same compound?
The growth was 0.75.

What about the growth ([3]; 10 µM) of the same compound?
The growth was 0.67.

How did the growth ([1]; 1 µM) turn out when `CCC1(c2ccc(N)cc2)CCC(=O)NC1=O` (stereo not given) [Aminoglutethimide] was run?
Its growth is 0.94.

What about the growth ([1]; 10 µM) of the same compound?
The growth was 1.09.

And the growth ([2]; 1 µM)?
The growth was 1.24.

What about the growth ([2]; 10 µM) of the same compound?
The growth was 0.79.

And the growth ([3]; 1 µM)?
The growth was 0.93.

And the growth ([3]; 10 µM)?
The growth was 1.05.

How did the growth ([1]; 1 µM) turn out when `Cc1cc(C(C#N)c2ccc(Cl)cc2)c(Cl)cc1NC(=O)c1cc(I)cc(I)c1O` (stereo not given) [Closantel] was run?
Its growth is 1.06.

What about the growth ([1]; 10 µM) of the same compound?
The growth was 1.11.

What about the growth ([2]; 1 µM) of the same compound?
The growth was 0.95.

What about the growth ([2]; 10 µM) of the same compound?
The growth was 0.92.

And the growth ([3]; 1 µM)?
Its growth is 0.94.

And the growth ([3]; 10 µM)?
The growth was 1.05.

— the supplement of paper PMC10470496
